Data published in article PMC10441986.
Results are given in words; binding and its absence hold for the method and conditions named. For some assays here: In cells and extracts the contact can be indirect. Some results given as binding are weak or reduced against the parent protein; the word gives no strength. Sequences can lack the tags named with a protein.

T1: ornithine decarboxylase antizyme 1 (OAZ1) of Recilia dorsalis, yeast two-hybrid fusion (Recilia dorsalis)
T1 sequence: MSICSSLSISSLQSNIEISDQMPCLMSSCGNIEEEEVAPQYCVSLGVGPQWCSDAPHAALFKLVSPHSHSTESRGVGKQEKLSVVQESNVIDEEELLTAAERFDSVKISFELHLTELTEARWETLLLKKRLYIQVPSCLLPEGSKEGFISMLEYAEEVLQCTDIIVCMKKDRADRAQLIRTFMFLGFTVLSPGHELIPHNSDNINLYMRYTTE

T2: GST-OAZ1 (OAZ1 of Recilia dorsalis fused with GST) (Recilia dorsalis)
T2 sequence: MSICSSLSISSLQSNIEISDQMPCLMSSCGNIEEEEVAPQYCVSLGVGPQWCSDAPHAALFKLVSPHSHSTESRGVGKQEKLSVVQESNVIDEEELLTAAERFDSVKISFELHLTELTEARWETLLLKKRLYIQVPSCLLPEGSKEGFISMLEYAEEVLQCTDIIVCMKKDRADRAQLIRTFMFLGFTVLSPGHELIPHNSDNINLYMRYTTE


What was measured:
[1] = target: T1, ornithine decarboxylase antizyme 1 (OAZ1) of Recilia dorsalis, yeast two-hybrid fusion (Recilia dorsalis); experiment: two-hybrid; Matchmaker Gal4 Two-Hybrid System3 (Clontech), bait plasmid pGBKT7 and prey plasmid pGADT7, yeast strain AH109; growth on DDO and QDO + X-alpha-gal plates, also serially diluted 10^-1 to 10^-4
[2] = target: T2, GST-OAZ1 (OAZ1 of Recilia dorsalis fused with GST) (Recilia dorsalis); experiment: pull-down; GST-fused proteins on glutathione-Sepharose beads 4 h at 4 °C, His-fused proteins then added 2 h at 4 °C; western blot with antibodies against GST and His

binding [1]	binding [2]	Binder
binds	–	ornithine decarboxylase 1 (ODC1) of Recilia dorsalis, yeast two-hybrid fusion (enzyme, UniProt A0A8K1F0V5 1-436) MRNVSVTDMIHILDPNTAPMDVLRAIALSGVQENAFYILDVGDIVHKHSEWKMKMPRVQPFYAVKCNDSQLVLATLAALGTGFDCASKTEIAKVMDLGVDGSRIIFANPAKMASHIRYAAAQGVDTMTFDNECELYKVKQLHPNARMVLRIRCDATVAQCQLGMKFGCEPLTEAPRLLKLAAALGLTVVGISFHVGSGCQDPPVFRRAISAARDLFDLGAQLGFNMALLDIGGGYPGNRGSNIDKIAEVVNAALDDYFPESLGVQVIAEPGRFYVASAYTLATLVHSKRDTMYYINDGVYGSFNCILYDHAIVKPVPLENKGGKPVVSSVWGPTCDGLDQVVESVLLPPLDIGDWLVFEDMGAYTLPVASTFNGFPVPKVHAVIDESVWHYLKDCLPLTEDHFTVQNNNWKSVWDIPSPEQSTPPSPTPYIYELMA
–	binds	His-ODC1 (ODC1 of Recilia dorsalis fused with His) (enzyme, UniProt A0A8K1F0V5 1-436) MRNVSVTDMIHILDPNTAPMDVLRAIALSGVQENAFYILDVGDIVHKHSEWKMKMPRVQPFYAVKCNDSQLVLATLAALGTGFDCASKTEIAKVMDLGVDGSRIIFANPAKMASHIRYAAAQGVDTMTFDNECELYKVKQLHPNARMVLRIRCDATVAQCQLGMKFGCEPLTEAPRLLKLAAALGLTVVGISFHVGSGCQDPPVFRRAISAARDLFDLGAQLGFNMALLDIGGGYPGNRGSNIDKIAEVVNAALDDYFPESLGVQVIAEPGRFYVASAYTLATLVHSKRDTMYYINDGVYGSFNCILYDHAIVKPVPLENKGGKPVVSSVWGPTCDGLDQVVESVLLPPLDIGDWLVFEDMGAYTLPVASTFNGFPVPKVHAVIDESVWHYLKDCLPLTEDHFTVQNNNWKSVWDIPSPEQSTPPSPTPYIYELMA
